Drawing on article PMC3104994, this text covers binding for 2 substances.

Sequences of proteins named here, by UniProt entry; tags and fusion partners are left off. Residues count along the entry.
UniProt O43295: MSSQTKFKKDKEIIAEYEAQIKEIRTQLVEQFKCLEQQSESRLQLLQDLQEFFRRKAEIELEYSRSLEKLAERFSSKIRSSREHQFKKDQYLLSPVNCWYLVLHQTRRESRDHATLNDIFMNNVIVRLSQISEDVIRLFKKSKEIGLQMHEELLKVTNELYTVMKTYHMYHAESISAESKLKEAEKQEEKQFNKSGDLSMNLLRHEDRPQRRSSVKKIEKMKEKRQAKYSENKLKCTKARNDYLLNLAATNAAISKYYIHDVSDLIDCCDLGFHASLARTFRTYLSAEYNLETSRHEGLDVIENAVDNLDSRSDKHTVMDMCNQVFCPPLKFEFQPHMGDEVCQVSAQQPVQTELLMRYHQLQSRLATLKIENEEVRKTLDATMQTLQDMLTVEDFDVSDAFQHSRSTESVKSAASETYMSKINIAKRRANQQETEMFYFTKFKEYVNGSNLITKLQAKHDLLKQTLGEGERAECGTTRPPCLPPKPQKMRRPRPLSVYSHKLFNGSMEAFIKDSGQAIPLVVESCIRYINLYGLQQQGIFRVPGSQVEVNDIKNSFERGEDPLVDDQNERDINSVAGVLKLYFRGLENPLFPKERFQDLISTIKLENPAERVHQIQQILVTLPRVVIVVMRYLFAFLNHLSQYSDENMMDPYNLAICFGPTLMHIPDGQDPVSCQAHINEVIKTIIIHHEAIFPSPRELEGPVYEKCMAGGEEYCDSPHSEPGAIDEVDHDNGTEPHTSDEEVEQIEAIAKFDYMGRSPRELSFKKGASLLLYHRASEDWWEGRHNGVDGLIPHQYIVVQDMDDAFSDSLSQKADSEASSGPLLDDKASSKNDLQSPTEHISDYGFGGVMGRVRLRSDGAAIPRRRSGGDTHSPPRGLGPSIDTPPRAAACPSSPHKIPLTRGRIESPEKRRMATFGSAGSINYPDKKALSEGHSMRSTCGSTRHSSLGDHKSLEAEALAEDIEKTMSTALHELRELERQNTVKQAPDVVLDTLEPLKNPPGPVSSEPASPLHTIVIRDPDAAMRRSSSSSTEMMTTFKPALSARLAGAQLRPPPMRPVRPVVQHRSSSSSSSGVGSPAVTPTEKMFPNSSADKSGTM
UniProt Q9Y6N7, residues 26-1651: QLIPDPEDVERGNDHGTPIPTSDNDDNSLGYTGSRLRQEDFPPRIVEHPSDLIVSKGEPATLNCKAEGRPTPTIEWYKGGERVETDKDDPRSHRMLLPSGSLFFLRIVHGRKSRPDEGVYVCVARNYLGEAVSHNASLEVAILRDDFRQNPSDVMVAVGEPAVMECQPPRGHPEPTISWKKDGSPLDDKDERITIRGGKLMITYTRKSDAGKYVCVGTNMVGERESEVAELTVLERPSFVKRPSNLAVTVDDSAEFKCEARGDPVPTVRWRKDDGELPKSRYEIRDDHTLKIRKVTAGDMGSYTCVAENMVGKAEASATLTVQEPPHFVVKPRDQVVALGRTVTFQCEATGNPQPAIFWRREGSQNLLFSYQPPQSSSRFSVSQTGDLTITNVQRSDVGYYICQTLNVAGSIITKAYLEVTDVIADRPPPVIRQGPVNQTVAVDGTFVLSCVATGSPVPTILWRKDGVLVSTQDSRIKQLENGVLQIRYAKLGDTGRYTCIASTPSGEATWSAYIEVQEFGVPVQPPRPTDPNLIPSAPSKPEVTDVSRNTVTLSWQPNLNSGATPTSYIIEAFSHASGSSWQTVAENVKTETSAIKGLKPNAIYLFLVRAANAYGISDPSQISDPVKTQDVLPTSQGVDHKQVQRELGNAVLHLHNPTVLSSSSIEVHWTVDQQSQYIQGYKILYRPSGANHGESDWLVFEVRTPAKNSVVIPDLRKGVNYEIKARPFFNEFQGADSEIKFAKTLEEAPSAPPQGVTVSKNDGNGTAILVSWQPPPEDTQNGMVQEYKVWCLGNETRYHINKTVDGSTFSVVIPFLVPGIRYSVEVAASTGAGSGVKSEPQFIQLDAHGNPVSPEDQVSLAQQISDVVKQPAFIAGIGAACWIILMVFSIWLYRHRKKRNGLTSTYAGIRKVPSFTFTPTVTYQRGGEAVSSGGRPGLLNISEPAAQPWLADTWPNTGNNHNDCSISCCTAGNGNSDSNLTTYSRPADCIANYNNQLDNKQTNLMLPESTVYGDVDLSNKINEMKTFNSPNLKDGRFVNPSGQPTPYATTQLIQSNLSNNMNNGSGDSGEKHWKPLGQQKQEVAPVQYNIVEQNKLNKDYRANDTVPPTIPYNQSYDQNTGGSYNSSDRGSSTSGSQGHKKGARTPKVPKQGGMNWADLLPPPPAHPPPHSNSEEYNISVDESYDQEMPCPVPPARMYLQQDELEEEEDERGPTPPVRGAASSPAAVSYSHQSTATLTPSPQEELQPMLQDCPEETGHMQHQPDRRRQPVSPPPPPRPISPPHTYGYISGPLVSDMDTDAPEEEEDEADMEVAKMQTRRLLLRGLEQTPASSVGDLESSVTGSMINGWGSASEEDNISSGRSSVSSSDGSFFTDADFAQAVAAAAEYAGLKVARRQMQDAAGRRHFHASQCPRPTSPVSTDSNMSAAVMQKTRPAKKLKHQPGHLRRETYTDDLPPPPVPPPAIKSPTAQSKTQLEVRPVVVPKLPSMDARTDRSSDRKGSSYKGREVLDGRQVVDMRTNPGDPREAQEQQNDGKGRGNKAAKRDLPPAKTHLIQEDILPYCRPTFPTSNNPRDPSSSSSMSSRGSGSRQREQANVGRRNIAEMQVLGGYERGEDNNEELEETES
UniProt Q9HCK4, residues 22-1378: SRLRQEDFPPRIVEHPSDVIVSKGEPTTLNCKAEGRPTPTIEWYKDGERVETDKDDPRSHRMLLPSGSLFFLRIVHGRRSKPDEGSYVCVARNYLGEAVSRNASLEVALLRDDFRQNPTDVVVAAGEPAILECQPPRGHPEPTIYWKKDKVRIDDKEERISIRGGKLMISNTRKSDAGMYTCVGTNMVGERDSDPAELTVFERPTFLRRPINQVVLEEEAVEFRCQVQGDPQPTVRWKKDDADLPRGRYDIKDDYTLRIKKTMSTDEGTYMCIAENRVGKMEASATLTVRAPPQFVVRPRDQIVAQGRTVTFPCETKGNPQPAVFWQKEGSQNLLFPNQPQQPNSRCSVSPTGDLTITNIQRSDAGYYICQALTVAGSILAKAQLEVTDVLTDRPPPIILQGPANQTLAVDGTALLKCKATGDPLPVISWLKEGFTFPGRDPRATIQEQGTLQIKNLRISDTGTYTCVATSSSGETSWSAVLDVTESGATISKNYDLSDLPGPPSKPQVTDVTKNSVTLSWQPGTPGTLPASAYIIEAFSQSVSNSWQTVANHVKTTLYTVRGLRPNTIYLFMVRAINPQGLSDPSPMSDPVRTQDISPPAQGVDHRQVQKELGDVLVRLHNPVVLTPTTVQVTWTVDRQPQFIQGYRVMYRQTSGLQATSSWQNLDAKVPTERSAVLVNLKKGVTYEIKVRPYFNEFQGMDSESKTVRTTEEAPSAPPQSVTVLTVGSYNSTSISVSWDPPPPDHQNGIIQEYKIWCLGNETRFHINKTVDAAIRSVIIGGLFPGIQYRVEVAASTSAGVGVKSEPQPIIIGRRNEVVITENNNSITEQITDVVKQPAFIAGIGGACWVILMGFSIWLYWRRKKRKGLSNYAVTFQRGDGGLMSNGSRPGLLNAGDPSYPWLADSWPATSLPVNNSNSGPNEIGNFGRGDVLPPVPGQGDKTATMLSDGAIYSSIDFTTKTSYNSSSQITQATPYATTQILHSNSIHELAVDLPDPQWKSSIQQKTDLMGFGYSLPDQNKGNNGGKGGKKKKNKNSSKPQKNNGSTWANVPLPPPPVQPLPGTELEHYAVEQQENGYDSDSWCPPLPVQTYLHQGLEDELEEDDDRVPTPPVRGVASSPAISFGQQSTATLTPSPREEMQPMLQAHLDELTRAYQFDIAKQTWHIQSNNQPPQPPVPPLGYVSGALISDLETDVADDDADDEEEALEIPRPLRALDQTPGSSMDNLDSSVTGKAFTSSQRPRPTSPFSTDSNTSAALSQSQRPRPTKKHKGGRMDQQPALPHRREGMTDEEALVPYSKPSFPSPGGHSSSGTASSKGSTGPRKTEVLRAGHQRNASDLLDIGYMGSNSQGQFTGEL

The target in the test is Slit-Robo GTPase activating protein 3 (srGAP3), full length (UniProt O43295). Put plainly: co-IP; HEK293 cells transiently co-transfected with srGAP3 and Myc-tagged Robo1/2 constructs; lysed in modified RIPA buffer (50 mM Tris/HCl pH 7.4, 1% NP-40, 0.25% Na-deoxycholate, 1 mM EDTA); 400 µg lysate precipitated with rabbit srGAP3 (19.1) antibody and protein A/G sepharose; blot with anti-myc 9E10.

Results are given in words; binding and its absence hold for the method and conditions named. Binding seen in cells or lysates may run through a third protein. Some entries that bind do so weakly or less than the wild type.

Regarding “Myc-tagged Robo1, full length (from UniProt Q9Y6N7 26-1651) (receptor)”, the binding result is “binds”.
The value for “Myc-tagged Robo2, full length (from UniProt Q9HCK4 22-1378) (receptor)” was “binds”.
